# Results reported in PubChem BioAssay (Tox21).
# Chains of the proteins cited; added tags and fusions are not shown. Lines headed by an entry give the natural chain unless they say otherwise; changes in a name come on top.
# UniProt P19793: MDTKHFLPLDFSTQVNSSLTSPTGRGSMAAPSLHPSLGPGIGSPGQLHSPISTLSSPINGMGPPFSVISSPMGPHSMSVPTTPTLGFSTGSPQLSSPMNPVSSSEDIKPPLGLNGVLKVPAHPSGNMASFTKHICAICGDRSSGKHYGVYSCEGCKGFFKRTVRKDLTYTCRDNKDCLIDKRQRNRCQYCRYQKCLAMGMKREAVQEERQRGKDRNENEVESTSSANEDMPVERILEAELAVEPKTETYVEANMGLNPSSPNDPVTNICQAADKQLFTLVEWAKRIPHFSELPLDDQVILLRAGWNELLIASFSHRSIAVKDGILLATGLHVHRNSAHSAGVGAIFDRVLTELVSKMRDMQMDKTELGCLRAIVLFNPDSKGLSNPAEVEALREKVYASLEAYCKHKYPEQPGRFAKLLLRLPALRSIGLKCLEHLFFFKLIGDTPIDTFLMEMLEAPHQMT
# Several values for one entry are separate records, joined by “and”; a condition that tells them apart may be missing. Equal values may be shown once. The inconclusive results got no clear call from the source; some entries with a clear call stand among them for comparison. For some of these results: Potencies of inconclusive entries are doubtful fits and often do not repeat. More than one record can exist for a structure, and the calls need not agree. Activity calls are given as the source filed them. Unless noted, calls follow the shape of the full dose curve.
# What was measured:
# [1] = target: Retinoic acid receptor RXR-alpha (Homo sapiens) (UniProt P19793); experiment: qHTS assay to identify small molecule agonists of the RXR signaling pathway (AID 1159527); details: HEK293T RXRa-UAS-bla, beta-lactamase ratio, 16 h; also: nearly all actives have a fitted effect of over 35% in size; also: potency is read from the fitted curve at half-maximal effect; as to activation: % is scaled to controls: 0 for no effect and ±100 for the full control effect
# Summary of the method: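 Cells plated at 2,000/well, rested 5 hr at 37 C, pin-dosed with DMSO compound solutions, incubated 16 hr, then loaded with B/G FRET substrate for 2 hr at RT before dual-emission fluorescence reading.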
# [2] = qHTS assay to identify small molecule antagonists of the retinoid acid receptor (RAR) signaling pathway - cell viability counter screen (AID 1159551; active = well fitted curve in the direction sought with a large enough effect in the repeat runs; inconclusive = weak or mixed curves; inactive = no such curve, though single readings can be large; an effect the other way counts as inactive or inconclusive; also: nearly all actives have a fitted effect of over 35% in size; also: potency is read from the fitted curve at half-maximal effect)
# Summary of the method: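 Cells (C3RL4) are plated, incubated overnight, dosed with compound in DMSO, then given retinol at 1 uM final. After 6 h at 37 C, CellTiter-Glo is added and luminescence read following 30 min at room temperature.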
# [3] = qHTS assay to identify small molecule antagonists of the retinoic acid receptor (RAR) signaling pathway (AID 1159552; active = well fitted curve in the direction sought with a large enough effect in the repeat runs; inconclusive = weak or mixed curves; inactive = no such curve, though single readings can be large; an effect the other way counts as inactive or inconclusive; also: % is scaled to controls: 0 for no effect and ±100 for the full control effect; nearly all actives have a fitted effect of over 50% in size)
# Summary of the method: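 Retinol at 1 uM final stimulated RARE-luciferase expression in C3RL4 cells exposed to test compounds for 6 hr at 37 C. Reduced luminescence, read 30 min after detection reagent, indicated pathway antagonism.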
# [4] = tested on: estrogen-related receptor alpha (ERRalpha) with PGC-1alpha coactivator, human; experiment: qHTS assay to identify small molecule antagonists of the estrogen related receptor signaling pathway with the pleiotropic PPARgamma coactivator (PGC) (AID 1224821); also: potency is read from the fitted curve at half-maximal effect; nearly all actives have a fitted effect of over 50% in size
# Summary of the method: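 Luminescence from One-Glo luciferase reagent (30 min, room temperature) measured after 18 h compound treatment at 37 °C. Cells carry the PGC/ERR reporter and were seeded 6 h prior to dosing.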
# [5] = qHTS assay to identify small molecule antagonists of the estrogen related receptor signaling pathway with the pleiotropic PPARgamma coactivator (PGC) cell viability counter screen (AID 1224822; active = well fitted curve in the direction sought with a large enough effect in the repeat runs; inconclusive = weak or mixed curves; inactive = no such curve, though single readings can be large; an effect the other way counts as inactive or inconclusive; also: potency is read from the fitted curve at half-maximal effect;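 also: viability read after 17.5 h compound exposure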)
# Summary of the method: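 Multiplexed viability counter screen run in PGC/ERR cells treated with compounds for 17.5 h at 37 C; live-cell protease signal measured by CellTiter-Fluor fluorescence.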
# [6] = qHTS assay to identify small molecule agonists of the RXR signaling pathway - cell viability counter screen (AID 1159529; active = well fitted curve in the direction sought with a large enough effect in the repeat runs; inconclusive = weak or mixed curves; inactive = no such curve, though single readings can be large; an effect the other way counts as inactive or inconclusive; also: nearly all actives have a fitted effect of over 50% in size; also: potency is read from the fitted curve at half-maximal effect)
# Summary of the method: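 Steps: seed RXR-alpha-UAS-bla HEK 293T cells in assay medium containing 2% charcoal-stripped FBS; incubate 5 hr; add compounds in DMSO; incubate 16 hr at 37 C; after the bla read, add CellTiter-Glo and read luminescence at 30 min.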
# [7] = qHTS assay to identify small molecule agonists of the retinoic acid receptor (RAR) signaling pathway (AID 1159553; active = well fitted curve in the direction sought with a large enough effect in the repeat runs; inconclusive = weak or mixed curves; inactive = no such curve, though single readings can be large; an effect the other way counts as inactive or inconclusive; also: potency is read from the fitted curve at half-maximal effect; as to activation: % is scaled to controls: 0 for no effect and ±100 for the full control effect); details: C3RL4 RARE luciferase reporter, agonist, 6 h; activation: at 73.3 µM (top of the series) unless noted
# Summary of the method: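 Seed C3RL4 reporter cells at 1,000 per well and incubate overnight at 37 C. Add compounds in DMSO, incubate 6 hr. Add luciferase reagent, wait 30 min at room temperature, read luminescence.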
# [8] = activation: at 76.8 µM (top of the series) unless noted
smiles,measurement,setting,value
CC(C)C(=O)OCCc1ccccc1,Potency,[1]; [8],inactive
O=C(O)c1ccco1,Potency,[1]; [8],inactive
c1ccc(-c2ccccc2-c2ccccc2)cc1,Potency,[1]; [8],"inconclusive: 43.6 µM [inhibitor, partial curve, poor fit]"
CC(=O)N(c1onc(C)c1C)S(=O)(=O)c1ccc(N)cc1,activation,[1]; [8],inconclusive: 6.26% [at 35.3 µM]
CCN1CN(CC)CN(CC)C1,Potency,[1]; [8],inactive
O=C(N[C@@H](Cc1ccccc1)[C@@H](O)C(=O)N1C[C@@H](O)[C@@H](O)C1)c1cc2cc(Cl)ccc2[nH]1,Potency,[1]; [8],"inconclusive: 49 µM [partial curve, poor fit]"
CC(=O)CC(c1ccc([N+](=O)[O-])cc1)c1c(O)c2ccccc2oc1=O (configuration not stated),activation,[1]; [8],inconclusive: -23.2% [at 35.3 µM]
Cc1c(F)cc2c(=O)c(C(=O)O)cn3c2c1CCC3C (configuration not stated),Potency,[1]; [8],inactive
OCC(O)c1ccccc1 (configuration not stated),Potency,[1]; [8],"inconclusive: 43.6 µM [activator, partial curve, poor fit]"
C[n+]1ccn(CCO)c1,Potency,[1]; [8],inactive
CCCCCCCC(OC)OC,Potency,[1]; [8],inactive
CC(C)CCCCCCCOC(=O)c1ccc(C(=O)OCCCCCCCC(C)C)c(C(=O)OCCCCCCCC(C)C)c1,Potency,[1]; [8],inconclusive: 43 µM
O=[N+]([O-])c1ccc(/C=C/c2ccc([N+](=O)[O-])cc2S(=O)(=O)O)c(S(=O)(=O)O)c1,Potency,[1]; [8],inconclusive: 54.9 µM [activator]
CCCCCCCC(=O)OCC(COC(=O)CCCCCCC)OC(=O)CCCCCCC,Potency,[1]; [8],inconclusive: 61.5 µM [activator]
CC(=O)c1sc(C)nc1C,Potency,[1]; [8],inactive
COc1ccc([C@@H]2Sc3ccccc3NC(=O)[C@@H]2O)cc1,Potency,[1]; [8],"inconclusive: 6.01 µM [inhibitor, partial curve, poor fit]"
C=C(C)C1CC=C(C)C(O)C1 (configuration not stated),Potency,[1]; [8],"inconclusive: 24.7 µM [activator, partial curve]"
Cc1cc(OI)c(C(C)C)cc1-c1cc(C(C)C)c(OI)cc1C,Potency,[1]; [8],inactive
O=C1CCCc2ccccc21,Potency,[1]; [8],active: 6.99 µM
CCC[C@H](N[C@@H](C)C(=O)N1[C@H](C(=O)O)C[C@@H]2CCCC[C@@H]21)C(=O)OCC,Potency,[1]; [8],inactive
CCO[Si](CCCN=C=O)(OCC)OCC,activation,[1]; [8],inconclusive: -13.9%
O=[N+]([O-])c1ccc2[nH]ncc2c1,Potency,[1]; [8],inactive
CC(O)CC(C)(C)O (configuration not stated),Potency,[1]; [8],inactive
CC(COCCO)OCCO (configuration not stated),Potency,[1]; [8],"inconclusive: 25.1 µM [activator, partial curve, poor fit]"
CCC(CO)CO,Potency,[1]; [8],inactive
C1=COCCC1,activation,[1]; [8],inconclusive: 12.9%
O=C1O[C@H]([C@@H](O)CO)C(O)=C1O,Potency,[1]; [8],active: 12.3 µM
O=C(CCN1CCN2CCCC2C1)N1c2ccccc2Sc2ccc(Cl)cc21 (configuration not stated),Potency,[1]; [8],"inconclusive: 4.65 µM [rising, partial curve, poor fit]"
CCOC(=O)C1=NN(c2ccc(Cl)cc2Cl)C(C)(C(=O)OCC)C1 (configuration not stated),Potency,[1]; [8],inactive
O=C(O)C(=O)O,activation,[1]; at 6.98 µM (top of the series),inactive: -14.7%
O=C(O)c1cc(N=Nc2ccc(S(=O)(=O)Nc3ccccn3)cc2)ccc1O,Potency,[2],"inconclusive: 68.8 µM [rising, partial curve, poor fit]"
FC(F)(F)c1ccc(Cl)c(Cl)c1,Potency,[2],inactive
Brc1ccc(Oc2ccc(Br)cc2)cc1,Potency,[3],inactive
Cc1ccccc1C(OCCN(C)C)c1ccccc1 (configuration not stated),Potency,[4],"inconclusive: 16.8 µM [inhibitor, partial curve, poor fit]"
Nc1ccn([C@H]2CC[C@@H](CO)O2)c(=O)n1,Potency,[5],inactive
CC(C)(O)C(=O)O,Potency,[1]; [8],"inconclusive: 18.9 µM [activator, full curve]"
same,Potency,[6],inactive
CCOC(=O)COc1ccc2c(c1)CC(NCC(O)c1cccc(Cl)c1)CC2 (configuration not stated),Potency,[1]; [8],"inconclusive: 35 µM [inhibitor, partial curve, poor fit]"
same,Potency,[6],"inconclusive: 49.4 µM [cytotoxic, single point]"
Cc1ccc(C(N)=O)cc1N,activation,[1]; [8],inconclusive: 7.05%
same,Potency,[6],inactive
ON(Cc1ccccc1)Cc1ccccc1,activation,[1]; [8],inconclusive: 1.31%
same,Potency,[6],inactive
C1CCC2OC2C1 (configuration not stated),Potency,[1]; [8],inactive
same,Potency,[6],"inconclusive: 51.8 µM [cytotoxic, partial curve, poor fit]"
CC1=CCCC(C)(C)C12CCC(C)O2 (configuration not stated),Potency,[1]; [8],inactive
same,Potency,[6],"inconclusive: 49 µM [cytotoxic, partial curve, poor fit]"
CC(=O)c1ccc2c(c1)CCCC2,Potency,[1]; [8],inactive
same,Potency,[6],inactive
CC(=O)OC[C@H]1O[C@@](COC(C)=O)(O[C@H]2O[C@H](COC(C)=O)[C@@H](OC(C)=O)[C@H](OC(C)=O)[C@H]2OC(C)=O)[C@@H](OC(C)=O)[C@@H]1OC(C)=O,activation,[1]; [8],inconclusive: 2.91% [at 35.3 µM]
same,Potency,[6],inactive
CC(C)=CCC/C(C)=C/CC/C(C)=C/CO,Potency,[1]; [8],"inconclusive: 12.3 µM [rising, partial curve, poor fit]"
same,Potency,[6],"inconclusive: 54.9 µM [cytotoxic, partial curve]"
CCN(CC)CCCC(C)Nc1ccnc2cc(Cl)ccc12 (configuration not stated),Potency,[1]; [8],"inconclusive: 0.848 µM [rising, partial curve, poor fit]"
same,activation,[1]; [8],inactive: -0.146% [at 15.8 µM]
same,Potency,[5],inconclusive: 16.8 µM [cytotoxic]
C[n+]1ccccc1/C=N/O,Potency,[1]; [8],inactive
same,Potency,[6],inactive
COc1ccccc1OC(=O)Oc1ccccc1OC,activation,[1]; [8],inconclusive: -23% [at 35.3 µM]
same,Potency,[6],"inconclusive: 19 µM [cytotoxic, partial curve]"
COc1ccc2nc(NC(=O)Nc3ccccc3)sc2c1,Potency,[1]; [8],"inconclusive: 6.01 µM [inhibitor, partial curve, poor fit]"
same,Potency,[6],"inconclusive: 0.952 µM [cytotoxic, single point]"
CCn1nc(Cc2ccccc2)cc1C1CCN(C[C@H]2C[C@H](N(C)[C@@H](C(=O)O)C(C)C)C[C@@H]2c2cccc(F)c2)CC1,Potency,[1]; [8],"inconclusive: 24.5 µM [rising, partial curve]"
same,Potency,[6],"inconclusive: 24.5 µM [cytotoxic, partial curve]"
SCCOCCOCCS,Potency,[1]; [8],"inconclusive: 17.4 µM [rising, partial curve, poor fit]"
same,Potency,[6],"inconclusive: 17.4 µM [cytotoxic, partial curve, poor fit]"
CN(C)C(=O)NC1(c2ccccc2)CCN(CCC[C@]2(c3ccc(Cl)c(Cl)c3)CCCN(C(=O)c3ccccc3)C2)CC1,Potency,[1]; [8],"inconclusive: 9.28 µM [rising, partial curve]"
same,Potency,[6],"inconclusive: 10.4 µM [cytotoxic, partial curve, poor fit]"
O=C1c2ccccc2CCc2ccccc21,activation,[1]; [8],inconclusive: -13.3%
same,activation,[1]; at 35.3 µM (top of the series),inactive: -18.9%
same,Potency,[7],"inconclusive: 31.3 µM [activator, partial curve, poor fit] and inconclusive: 26.6 µM [activator]"
CCOC(=O)/C=C/C(=O)O,activation,[1]; [8],inconclusive: 16.5%
same,Potency,[6],"inconclusive: 38.9 µM [cytotoxic, partial curve]"
c1ccc2c(c1)-c1ccc3ccc4cccc5cc-2c1c3c45,Potency,[1]; [8],inconclusive: 9.52 µM [fluorescent]
same,Potency,[6],"inconclusive: 8.49 µM [cytotoxic, partial curve, poor fit]"
CCn1ccnc1CC1COc2ccccc2O1 (configuration not stated),Potency,[1]; [8],inactive
same,Potency,[6],inactive
COC(OC)C(C)c1ccccc1 (configuration not stated),Potency,[1]; [8],inactive
same,Potency,[6],inactive
Cc1cc(O)c2c(O)c3c(O)cccc3cc2c1,Potency,[1]; [8],"inconclusive: 23.9 µM [partial curve, poor fit]"
same,Potency,[6],inactive
CC(C)(O)c1ccc(CNC(=O)c2cccnc2Oc2ccc(F)cc2)cc1,activation,[1]; [8],inconclusive: -1.31%
same,Potency,[6],"inconclusive: 21.9 µM [cytotoxic, partial curve, poor fit]"
O=C(NCC1CCCCN1)c1cc(OCC(F)(F)F)ccc1OCC(F)(F)F (configuration not stated),Potency,[1]; [8],"inconclusive: 53.9 µM [rising, partial curve, poor fit]"
same,Potency,[6],"inconclusive: 42.9 µM [cytotoxic, partial curve]"
OC[C@H]1O[C@H](O[C@]2(CCl)O[C@H](CCl)[C@@H](O)[C@@H]2O)[C@H](O)[C@@H](O)[C@H]1Cl,Potency,[1]; [8],inactive
same,Potency,[6],inactive
O=C(c1ccccc1)c1ccc(Cl)cc1,Potency,[1]; [8],"inconclusive: 61.6 µM [inhibitor, single point]"
same,Potency,[6],inconclusive: 61.6 µM [cytotoxic]
CCCCCCC=O,activation,[1]; [8],inconclusive: 6.66%
same,activation,[1]; at 76.8 µM (top of the series),inactive: -1.32%
same,Potency,[7],inactive
CC1CCc2cc(F)cc3c(=O)c(C(=O)O)cn1c23 (configuration not stated),activation,[1]; [8],inconclusive: 1.36% [at 35.3 µM]
same,Potency,[6],inactive
O=C(O)c1c2ccccc2cc2ccccc12,Potency,[1]; [8],"inconclusive: 9.74 µM [inhibitor, partial curve, poor fit]"
same,Potency,[6],inactive
COC(=O)C(C)(C)C,Potency,[1]; [8],inconclusive: 19.8 µM [activator]
same,Potency,[6],"inconclusive: 55.8 µM [cytotoxic, single point]"
CCOC(=O)c1ccc(O)cc1,activation,[1]; [8],inconclusive: 1.39% [at 35.3 µM]
same,activation,[1]; at 76.8 µM (top of the series),inactive: -0.181%
same,Potency,[7],inconclusive: 29.8 µM [activator]
Nc1ccc(S(=O)(=O)Nc2nccs2)cc1,Potency,[1]; [8],active: 19.6 µM
same,activation,[1]; [8],inconclusive: -20.7%
same,Potency,[7],"inconclusive: 68.6 µM [inhibitor, single point]"
CN(C)CCOC(c1ccccc1)c1ccccc1,activation,[1]; [8],inconclusive: -25.2%
same,Potency,[6],"inconclusive: 17.5 µM [cytotoxic, partial curve, poor fit]"
C[N+](C)(CCOc1ccccc1)Cc1cccs1,Potency,[1]; [8],inactive
same,Potency,[6],inactive
CC(=O)CC(N)=O,Potency,[1]; [8],inactive
same,Potency,[6],inactive
Cc1ccc2sc3cccc(C)c3c2c1,Potency,[1]; [8],inactive
same,Potency,[6],"inconclusive: 30.9 µM [cytotoxic, partial curve, poor fit]"
